Measured values from article PMC6401487.

T1: Ferredoxin 1 (Fd-1), encoded by TK1694, with C-terminal HA-His6 extension (Thermococcus kodakarensis) (UniProt Q977X3)
T1 sequence: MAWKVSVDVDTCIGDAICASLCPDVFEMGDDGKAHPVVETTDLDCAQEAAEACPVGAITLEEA

T2: Ferredoxin 3 (Fd-3), encoded by TK2012, with C-terminal HA-His6 extension (Thermococcus kodakarensis) (UniProt Q5JDE8)
T2 sequence: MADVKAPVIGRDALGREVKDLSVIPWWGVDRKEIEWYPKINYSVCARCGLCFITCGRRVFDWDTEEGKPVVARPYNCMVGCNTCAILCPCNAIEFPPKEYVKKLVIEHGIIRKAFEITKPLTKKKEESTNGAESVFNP

B1: Ferredoxin:NADH oxidoreductase, α subunit (TK1325) (protein, UniProt Q5JGT0 1-481)
chain: MPRRKLIKERVPTPERPPEERIKDFKEVNLGYTFELAVKEAERCLQCPYEYAPCIKGCPVHINIPGFISKLVEYRDDPDKAVKEALNVIWACNSLPATTGRVCPQEDQCEMNCVMGKVGDKINIGKLERFVADYAREKGIDEELLFEIIPKIEKKGQKVAIIGAGPAGLTAAGELAKLGYDVTIYEALHEPGGVLMYGIPEFRLPKEIVNKEIEKLRKLGVKILTDHVVGRTVTIEELLQEYDAVFIGSGAGTPRLINAPGINLNGIYTANEFLTRVNLMKAYLFPEYDTPVYVGKKVIVIGAGNTAMDAARSARRFGAEVTIAYRRGEEDVSAREEEVEHAKEEGIKFVYFVNPVEFIGDENGRVKAVKFEKMKALDERDARGKRKIVGTGEYVTLEADTVIIAIGKHPNRLIINTPGLKVERGKIVVDENLMTSIPGVFAGGDAIRGEATVILAMGDGRKAAKAIHEYLTKKRQEKANA
B2: Ferredoxin:NADH oxidoreductase, β subunit (TK1685) (protein, UniProt Q5JIY6 1-284)
chain: MGYKITAKENLSVIDFFMEVEAPHVARSWKPGQFIVLIVDEKGERVPMSVYYADKDTGRVGMFIRRHGVTTFKLWYEKQVGDELLSVAGPLGKPIEVKHYGNVVFAADAVCAQAECYATLKAMKEAGNYTIAIHSFETKDHVYPEKFLSKPVADEFYITTEDGSVGRKGHYLDVLKELIEQDKVDIVFAGGKLGSLKKLAELTRPYGIPTITTVRQIMVDGTGMCGSCRILYDGEVKFACRDGPMFDAHKVDWDDVIRRDSRFAEQQALARERYLAKLREKGVI
B3: Rubrerythrin-related protein (TK0650) (protein, UniProt Q5JF77 1-174)
chain: MVPPELEEGLPLEKMKDFSLEELLGMAIKAEIGARKFYESLAERIDIQELKEKIEWLAGEEKKHEELLRKIYANMFPGKEVVFPKEHIGPELQPVARKLNGVQDIIDLIRWAMKAEEIAAQFYAKLEEMVDTEEKKRLMRYLSDMEWGHYYNLKAEYELLLDWEMYGQMMHVGP
B4: Ferredoxin:NADH oxidoreductase, β subunit (TK1326) (protein, UniProt Q5JGS9 1-291)
chain: MPYKILDKKELAMNEVWYKIHAPHVAKKVQPGQFVIVRAFPNGERIPLTPVTWDREEGWITLITFVRGKTTMRMANELKPGDEILNVAGPLGNPAPMEKFGRVLAIGLITGIVEVFPIARAWQEIGNEVTTLHVSPNPMVILREEFEQSVSRHIVEGFDLQPGWGMNEIAQELVKRATAKVRELLENEHFDMVLTVGPAGGQKAIFNVVKEYGIPMHADLHPIMVDATGMCGACRVTVGGEVKFACIDGPGFDAYKVDWDELIHRTGFYAPLERLALEHYLKQLQAQGGEQ
B5: Ferredoxin:NADP oxidoreductase, α subunit (TK1684) (protein, UniProt Q5JIW7 1-481)
chain: MAVRRKLIKERVPTPEVPVEERIKSFVEVNLGYDFASAVKEAERCLQCPVEYAPCIKGCPVHINIPGFISKLVEYRDNPDKAVREALRIIWNDNTLPAVTGRVCPQEDQCEGVCVMGKVGDPINIGKLERFVADYARKHGIEEELLCEFEERCTGELGKVAVVGAGPAGLTAAGELAKMGYKVTIFEALHKPGGVLAYGIPEFRLPKEILDQELAKLKRLGVEIRTDHVVGRTVTIEELLQEYDAVFIGTGAGTPKLLNVPGILLDRIYSANEFLTRVNLMKAYEFPEYDTPIAIGKKTIVIGAGNTAMDAARSALRLGSEVTIAYRRGREDMTARIEEIKHAEEEGVKFEFFLQPVEFIGDENGRVKAVKFEKMRPLDERDARGKRKIVGTGEYVTLEADTVIIAIGLEPNRIITETPGLKTNTNGTLVVDENLMTSIPGVFAGGDAIRGEATVILAMGDGKKAAKAIHEYIQAKRKANA
B6: Thermosome, α subunit (protein, UniProt P61111 1-548)
chain: MAQLSGQPVVILPEGTQRYVGRDAQRLNILAARIIAETVRTTLGPKGMDKMLVDSLGDIVVTNDGATILDKIDLQHPAAKMMVEVAKTQDKEAGDGTTTAVVIAGELLRKAEELLDQNIHPSIIIKGYALAAEKAQEILDEIAIRVDPDDEETLLKIAATSITGKNAESHKELLAKLAVEAVKQVAEKKDGKYVVDLDNIKFEKKAGEGVEESELVRGVVIDKEVVHPRMPKRVENAKIALINEALEVKKTETDAKINITSPDQLMSFLEQEEKMLKDMVDHIAQTGANVVFVQKGIDDLAQHYLAKYGIMAVRRVKKSDMEKLAKATGAKIVTNVKDLTPEDLGYAEVVEERKLAGENMIFVEGCKNPKAVTILIRGGTEHVIDEVERALEDAVKVVKDVMEDGAVLPAGGAPEIELAIRLDEYAKQVGGKEALAIENFADALKIIPKTLAENAGLDTVEMLVKVISEHKNRGLGIGIDVFEGKPADMLEKGIIEPLRVKKQAIKSASEAAIMILRIDDVIAAKATKPEGGQGGGMPGGMGGMDMGM
B7: Type II DNA topoisomerase VI, subunit B (protein, UniProt Q5JH81 1-567)
chain: MAEANQLFKEFKIQSVSEFFRRNAAMLGYTGKVRSLTTLVHEAVTNSLDACEEAGIPPYVRVEIEELGNEHYKVVVEDNGPGIPEKYITHVFGKMLAGTKAHRNIQSRGQQGIGISGAVMFAQITSGKATRVITSTGNDEIIEAWVKIDVDKNEGKIVKKEKHPNPKGWRGTRIELEVKNVKYMRSKQGVFWYLKLTAIANPHAHIELIEPDGKLIVFPRSSDYIPEPPVEMKPHPKGVLTDDVYRLAKKTRRNTVRRFLIGEFSRISDKKVDELIEYIAALRLIKTVEDKKLQEQYYQKLMEGHVKAVLRAFKGYTKVVKQVAKMMEKPPEKLTWHEAEEIVEAFKYMKFLAPPTHGLRPIGEENIEKGLKGILKPEFVTAVTRPPKVYSGGIPFQVEVGIAYGGEIPAGFDLYRYANRVPLLFDAGSCVTTQAARSIDWKRYKIDDLDRAPLVLMINVVSVHVPYTGTGKQSIASVDEIYNEIRLAIMDAARRLQTYLSGKHRKLAQVKRRKTFEKYVPEIARALSILTGEPEEKIREYFIRFIESKFASAEVEEVAAEEVAENA
B8: 4Fe-4S cluster-binding protein associated with formate dehydrogenase (TK2075) (protein, UniProt Q5JHW1 1-168)
chain: MTRRILHVDYSLCIGCETCEGVCDFIHGGRPNIKVYYTITGIPVPINCRHCEKAPCMDVCPAGAIYRDSDGAVIINPNKCIGCLMCLAACPFGVPTFDVKLKAVTKCDMCADRRRLGTAPACAEMCPAGAIFFGKPEEVEEKVRRRTAEKIARERLAAVNLEGVGRML
B9: V-type ATP synthase subunit D (protein, UniProt Q5JIR1 1-214)
chain: MAELLNVKPTRMELLNLKRRITLAKKGHKLLKDKQDALVMEFFTIYDEALRLREELNEKMMEAFKALQRAEIDVGTLRMKEISLSVKPNREVEVKTRNVMGVPVPLIEAESFKRSAGERGYAFVSSSARVDLAAEKFEEVLDLAVRLAEVEETLKRLAKEIEVTKRRVNALEYIIIPRMEATVKFIKQRLDEMERENFFRLKRVKALIEARSGS
B10: Thermosome, β subunit (protein, UniProt Q52500 1-546)
chain: MAQLAGQPVVILPEGTQRYVGRDAQRLNILAARIIAETVRTTLGPKGMDKMLVDSLGDIVITNDGATILDEMDIQHPAAKMMVEVAKTQDKEAGDGTTTAVVIAGELLRKAEELLDQNIHPSIIIKGYALAAEKAQEILDEIAKDVDVEDREILKKAAVTSITGKAAEEEREYLAEIAVEAVKQVAEKVGETYKVDLDNIKFEKKEGGSVKDTQLIKGVVIDKEVVHPGMPKRVEGAKIALINEALEVKETETDAEIRITSPEQLQAFLEQEEKMLREMVDKIKEVGANVVFVQKGIDDLAQHYLAKYGIMAVRRVKKSDMEKLAKATGAKIVTNVRDLTPEDLGEAELVEQRKVAGENMIFVEGCKNPKAVTILIRGGTEHVVDEVERALEDAVKVVKDIVEDGKIVAAGGAPEIELAIRLDEYAKEVGGKEQLAIEAFAEALKVIPRTLAENAGLDPIETLVKVIAAHKEKGPTIGVDVFEGEPADMLERGVIAPVRVPKQAIKSASEAAIMILRIDDVIAASKLEKDKEGGKGGSEDFGSDLD
B11: V-type ATP synthase, subunit B (protein, UniProt Q5JIR2 1-465)
chain: MIMPGMEYSTVSKIYGPLMIVQGVKGVAYGEVVEIETESGEKRKGQVLEAREDMAIVQVFEGTRDLDIKTTRVRFTGETLKVPVSMDMLGRIFNGIGKPIDGGPEIIPEDRRDVHGAPLNPVARAYPRDFIQTGISAIDGMNTLVRGQKLPIFSGSGLPHNMLAAQIARQAKVLGEEEQFAVVFAAMGITYEEANFFKKSFEETGAIERAVLFLNLADDPAIERIITPRMALTVAEYLAFDYDMQVLVILTDMTNYAEALREISAAREEVPGRRGYPGYMYTDLATIYERAGRVRGKKGSITQMPILTMPDDDITHPIPDLTGYITEGQIVLSRELHRKGIYPPIDVLPSLSRLMKDGIGKGRTREDHPQLSQQLYAAYAEGRSLRDLVAVVGEEALSETDRKYLKFADRFEREFVAQRYDEDRSIFETLDLGWELLAELPESELKRVRKEYILKYHPKYRKRGE
B12: Formate dehydrogenase, 4Fe-4S cluster-binding protein (protein, UniProt Q5JHV9 1-166)
chain: MARKTVFIDFSKCIECRACEVACEREHNGRSFINVFEWQEMAAMALNCRHCEKAPCLEVCPTNALYRDGDGAVLLAPQKCIGCLMCGIVCPFGIPELDSLDKIMMKCDLCAHRRAEGKLPACVETCPTDALLFGDFNDIQRMRRQKFTEKAIEIAKSGERIQFRGV
B13: Ferredoxin 1 (Fd-1), encoded by TK1694, with C-terminal HA-His6 extension (protein, UniProt Q977X3 1-63)
chain: T1 sequence
B14: Superoxide reductase (protein, UniProt Q5JF09 1-115)
chain: MLSQTIKSGDWKGEKHVPVIEYEKEGDLVKVEVSVGKEIPHPNTPEHHIAWIQLWFHPEDGAFPILVGKVEFSNHTDPLTEPRAVFFFRTQKKGKLYALSYCNIHGLWENEVTLE
B15: Membrane-bound hydrogenase subunit, MbhI (protein, UniProt Q5JHU8 1-118)
chain: MPEMFGYWDAIYFVFVFIIGLILAYLLDKWAKRSGMGTRETGDGTKIFISGEDPDRIIPGFEHLEGHYTGRNVMWGLTYALKNFFTVLRRDHTGLLTDYASYLVITTAFVLGVLLIWG

Each binder was assayed against T1, Ferredoxin 1 (Fd-1), encoded by TK1694, with C-terminal HA-His6 extension (Thermococcus kodakarensis) (assay: affinity purification with mass spectrometry; C-terminally HA-His6-tagged Fd made from its own genomic locus; clarified lysates of cultures grown with S0 or without S0 (pyruvate); Ni2+-charged chelating column at 4 °C in 25 mM Tris-HCl pH 8.0, 500 mM NaCl, 10% glycerol; linear imidazole gradient; pooled Fd-containing fractions analysed by MuDPIT; proteins also found in equivalent fractions of parental strain TS559 subtracted).

binding	Binder
binds	B1
binds	B2
binds	B3
binds	B4
binds	B5

These binders were tested against T2, Ferredoxin 3 (Fd-3), encoded by TK2012, with C-terminal HA-His6 extension (Thermococcus kodakarensis) in the same assay as above.

binding	Binder
binds	B6
binds	B7
binds	B8
binds	B9
binds	B10
binds	B11
binds	B12
no binding	B13
binds	B14
binds	B15

No constants are given. Whether binding was seen depends on the method and setting. In cells and extracts the contact can be indirect. Here binding means that the protein was enriched with, or labelled near, the bait; the list need not be complete. For part of these data: A no says only that the protein was not detected with the bait. Where a sequence is shown, tags or fusion partners need not be part of it.
